± gives the standard deviation of the averaged measurements. Differences between knockout arms are mostly noise.
System: SKBR3
Test: relative cell number vs DMSO control (72 h) (% of DMSO); higher = less growth inhibition (more cells)
Method: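 QMAP-Seq: a pool of 5 breast cancer cell lines (ZR-75-1, SKBR3, HCC-38, MDA-MB-231, BT-20), each carrying 12 doxycycline-inducible Cas9 sgRNA perturbations (11 knockouts plus non-targeting sgNT), was treated with compounds for 72 h at four 10-fold doses (10 nM-10 uM or 1 nM-1 uM range). Barcodes were amplified and sequenced, and cell number was interpolated from 293T spike-in standard curves. The result is expressed as % of the median of DMSO wells. Two biological replicates.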

[1] = sgRNA knockout: sgATF3, 1000 nM
[2] = sgRNA knockout: sgATF3, 10000 nM
[3] = sgRNA knockout: sgATF4, 1000 nM
[4] = sgRNA knockout: sgATF4, 10000 nM
[5] = sgRNA knockout: sgATF6, 1000 nM
[6] = sgRNA knockout: sgATF6, 10000 nM
[7] = sgRNA knockout: sgATG7, 1000 nM
[8] = sgRNA knockout: sgATG7, 10000 nM
[9] = sgRNA knockout: sgERN1, 1000 nM
[10] = sgRNA knockout: sgERN1, 10000 nM
[11] = sgRNA knockout: sgHSF1, 1000 nM
[12] = sgRNA knockout: sgHSF1, 10000 nM
[13] = sgRNA knockout: sgHSF2, 1000 nM
[14] = sgRNA knockout: sgHSF2, 10000 nM
[15] = sgRNA knockout: sgKEAP1, 100 nM
[16] = sgRNA knockout: sgKEAP1, 1000 nM
[17] = sgRNA knockout: sgKEAP1, 10000 nM
[18] = sgRNA knockout: sgNFE2L2, 10 nM
[19] = sgRNA knockout: sgNFE2L2, 100 nM
[20] = sgRNA knockout: sgNFE2L2, 1000 nM
[21] = sgRNA knockout: sgNFE2L2, 10000 nM
[22] = sgRNA knockout: sgSLC35F2, 10 nM
[23] = sgRNA knockout: sgSLC35F2, 100 nM
[24] = sgRNA knockout: sgSLC35F2, 1000 nM
[25] = sgRNA knockout: sgSLC35F2, 10000 nM
[26] = sgRNA knockout: sgXBP1, 1000 nM
[27] = sgRNA knockout: sgXBP1, 10000 nM

## O=C1NC(=O)[C@@H](c2cn3c4c(cccc24)CCC3)[C@@H]1c1c[nH]c2ccccc12 [Tivantinib]
sgRNA knockout: sgATF3, 10 nM
  relative cell number: 99.3 ± 14
sgRNA knockout: sgATF3, 100 nM
  relative cell number: 78.4 ± 18
[1]
  relative cell number: 16.8 ± 5.1
[2]
  relative cell number: 8.43 ± 3.5
sgRNA knockout: sgATF4, 10 nM
  relative cell number: 90.4 ± 8
sgRNA knockout: sgATF4, 100 nM
  relative cell number: 87.2 ± 0.97
[3]
  relative cell number: 18.7 ± 2.3
[4]
  relative cell number: 12.8 ± 5.4
sgRNA knockout: sgATF6, 10 nM
  relative cell number: 99.46 ± 0.46
sgRNA knockout: sgATF6, 100 nM
  relative cell number: 93.3 ± 32
[5]
  relative cell number: 15.4 ± 1.7
[6]
  relative cell number: 12 ± 1.1
sgRNA knockout: sgATG7, 10 nM
  relative cell number: 87.6 ± 24
sgRNA knockout: sgATG7, 100 nM
  relative cell number: 98.8 ± 16
[7]
  relative cell number: 19.5 ± 5.3
[8]
  relative cell number: 8.63 ± 2.4
sgRNA knockout: sgERN1, 10 nM
  relative cell number: 101 ± 16
sgRNA knockout: sgERN1, 100 nM
  relative cell number: 94.2 ± 16
[9]
  relative cell number: 13.7 ± 3.1
[10]
  relative cell number: 9.33 ± 2.9
sgRNA knockout: sgHSF1, 10 nM
  relative cell number: 91.96 ± 0.16
sgRNA knockout: sgHSF1, 100 nM
  relative cell number: 86.3 ± 10
[11]
  relative cell number: 16 ± 3.4
[12]
  relative cell number: 9.28 ± 0.12
sgRNA knockout: sgHSF2, 10 nM
  relative cell number: 81.39 ± 0.39
sgRNA knockout: sgHSF2, 100 nM
  relative cell number: 81.8 ± 26
[13]
  relative cell number: 17.1 ± 3.7
[14]
  relative cell number: 9.44 ± 5.2
sgRNA knockout: sgKEAP1, 10 nM
  relative cell number: 86.5 ± 7.3
[15]
  relative cell number: 99.2 ± 8.1
[16]
  relative cell number: 17.5 ± 9.2
[17]
  relative cell number: 10.9 ± 4.3
[18]
  relative cell number: 90.4 ± 18
[19]
  relative cell number: 89.5 ± 3.2
[20]
  relative cell number: 19.6 ± 0.91
[21]
  relative cell number: 8.35 ± 2.4
[22]
  relative cell number: 93.1 ± 20
[23]
  relative cell number: 90.5 ± 10
[24]
  relative cell number: 18.1 ± 6.1
[25]
  relative cell number: 10.6 ± 0.34
sgRNA knockout: sgXBP1, 10 nM
  relative cell number: 101 ± 4.9
sgRNA knockout: sgXBP1, 100 nM
  relative cell number: 108 ± 25
[26]
  relative cell number: 19.5 ± 6.2
[27]
  relative cell number: 11 ± 0.59

## CS(=O)(=O)N1CCN(Cc2cc3nc(-c4cccc5[nH]ncc45)nc(N4CCOCC4)c3s2)CC1 [GDC0941]
sgRNA knockout: sgATF3, 10 nM
  relative cell number: 113 ± 6.2
sgRNA knockout: sgATF3, 100 nM
  relative cell number: 90.4 ± 10
[1]
  relative cell number: 37.7 ± 1.1
[2]
  relative cell number: 34 ± 1.9
sgRNA knockout: sgATF4, 10 nM
  relative cell number: 82.7 ± 6.7
sgRNA knockout: sgATF4, 100 nM
  relative cell number: 72 ± 3.2
[3]
  relative cell number: 37.9 ± 2.6
[4]
  relative cell number: 29.6 ± 2.1
sgRNA knockout: sgATF6, 10 nM
  relative cell number: 104 ± 1.9
sgRNA knockout: sgATF6, 100 nM
  relative cell number: 80 ± 26
[5]
  relative cell number: 42.8 ± 4.3
[6]
  relative cell number: 36.8 ± 1
sgRNA knockout: sgATG7, 10 nM
  relative cell number: 89 ± 27
sgRNA knockout: sgATG7, 100 nM
  relative cell number: 82.7 ± 16
[7]
  relative cell number: 40.2 ± 8.6
[8]
  relative cell number: 33.5 ± 13
sgRNA knockout: sgERN1, 10 nM
  relative cell number: 90.2 ± 2.4
sgRNA knockout: sgERN1, 100 nM
  relative cell number: 91.8 ± 11
[9]
  relative cell number: 44.5 ± 5.9
[10]
  relative cell number: 36.8 ± 11
sgRNA knockout: sgHSF1, 10 nM
  relative cell number: 87.4 ± 11
sgRNA knockout: sgHSF1, 100 nM
  relative cell number: 83.7 ± 8.8
[11]
  relative cell number: 36.4 ± 4.7
[12]
  relative cell number: 30.3 ± 12
sgRNA knockout: sgHSF2, 10 nM
  relative cell number: 84.3 ± 3.6
sgRNA knockout: sgHSF2, 100 nM
  relative cell number: 97.9 ± 36
[13]
  relative cell number: 44.2 ± 13
[14]
  relative cell number: 39 ± 18
sgRNA knockout: sgKEAP1, 10 nM
  relative cell number: 90.1 ± 27
[15]
  relative cell number: 67.9 ± 6.5
[16]
  relative cell number: 40.3 ± 5
[17]
  relative cell number: 32.9 ± 0.56
[18]
  relative cell number: 85.9 ± 5.8
[19]
  relative cell number: 86.8 ± 9.9
[20]
  relative cell number: 41.3 ± 5.9
[21]
  relative cell number: 34.7 ± 4.8
[22]
  relative cell number: 96.4 ± 4.5
[23]
  relative cell number: 83 ± 8.8
[24]
  relative cell number: 40.2 ± 9.3
[25]
  relative cell number: 44.7 ± 12
sgRNA knockout: sgXBP1, 10 nM
  relative cell number: 111 ± 10
sgRNA knockout: sgXBP1, 100 nM
  relative cell number: 81.5 ± 7.2
[26]
  relative cell number: 51.1 ± 15
[27]
  relative cell number: 33.6 ± 4.3

## OCc1ccc(-c2ccc(-c3ccc(CO)s3)o2)s1
sgRNA knockout: sgATF3, 10 nM
  relative cell number: 93.9 ± 12
sgRNA knockout: sgATF3, 100 nM
  relative cell number: 11.9 ± 3
[1]
  relative cell number: 12.3 ± 6.5
[2]
  relative cell number: 5.72 ± 0.73
sgRNA knockout: sgATF4, 10 nM
  relative cell number: 83.5 ± 24
sgRNA knockout: sgATF4, 100 nM
  relative cell number: 14.2 ± 3
[3]
  relative cell number: 10.7 ± 4.2
[4]
  relative cell number: 6.32 ± 0.84
sgRNA knockout: sgATF6, 10 nM
  relative cell number: 75.1 ± 16
sgRNA knockout: sgATF6, 100 nM
  relative cell number: 13.9 ± 8.4
[5]
  relative cell number: 12 ± 5.6
[6]
  relative cell number: 5.39 ± 0.86
sgRNA knockout: sgATG7, 10 nM
  relative cell number: 90.8 ± 32
sgRNA knockout: sgATG7, 100 nM
  relative cell number: 15.3 ± 4.6
[7]
  relative cell number: 14.2 ± 5
[8]
  relative cell number: 5.79 ± 3.1
sgRNA knockout: sgERN1, 10 nM
  relative cell number: 90.2 ± 44
sgRNA knockout: sgERN1, 100 nM
  relative cell number: 13.1 ± 1.9
[9]
  relative cell number: 10.5 ± 3.8
[10]
  relative cell number: 7.51 ± 2.3
sgRNA knockout: sgHSF1, 10 nM
  relative cell number: 61.9 ± 20
sgRNA knockout: sgHSF1, 100 nM
  relative cell number: 10.7 ± 0.59
[11]
  relative cell number: 11 ± 2.6
[12]
  relative cell number: 4.83 ± 1
sgRNA knockout: sgHSF2, 10 nM
  relative cell number: 64.7 ± 21
sgRNA knockout: sgHSF2, 100 nM
  relative cell number: 14.5 ± 2.2
[13]
  relative cell number: 11.7 ± 4.9
[14]
  relative cell number: 6.74 ± 0.58
sgRNA knockout: sgKEAP1, 10 nM
  relative cell number: 75.4 ± 21
[15]
  relative cell number: 16.3 ± 3.6
[16]
  relative cell number: 10.3 ± 4.7
[17]
  relative cell number: 5.68 ± 1.6
[18]
  relative cell number: 72.8 ± 24
[19]
  relative cell number: 17.4 ± 9.8
[20]
  relative cell number: 13 ± 5.7
[21]
  relative cell number: 6.84 ± 1.7
[22]
  relative cell number: 84.3 ± 38
[23]
  relative cell number: 18.1 ± 2
[24]
  relative cell number: 12 ± 5
[25]
  relative cell number: 5.57 ± 1.8
sgRNA knockout: sgXBP1, 10 nM
  relative cell number: 96.3 ± 15
sgRNA knockout: sgXBP1, 100 nM
  relative cell number: 16.8 ± 3.7
[26]
  relative cell number: 14.5 ± 6.7
[27]
  relative cell number: 6.9 ± 3.1

From the supplement of paper PMC7661543
